Source: patent US7410966B2, “Use of and some novel imidazopyridines” (AstraZeneca AB, priority 2002, dated 2008)
Some of these results come from one statement about several compounds together.

The molecules below were run against T1, recombinant human Itk kinase domain fused with GST (Homo sapiens, UniProt Q08881) (assay: Itk LANCE TRF Assay). Details: 2 μM biotinylated peptide substrate, 50 μM ATP, 50 minutes RT, read-out: Inhibition of Kinase Itk (IC50 μM).
T1 construct: recombinant human Itk kinase domain fused with GST (Glutathione S-Transferase); GST (Glutathione S-Transferase); made in house; host or cells: High Five insect cells
T1 sequence (Q08881 363-615 limits assumed): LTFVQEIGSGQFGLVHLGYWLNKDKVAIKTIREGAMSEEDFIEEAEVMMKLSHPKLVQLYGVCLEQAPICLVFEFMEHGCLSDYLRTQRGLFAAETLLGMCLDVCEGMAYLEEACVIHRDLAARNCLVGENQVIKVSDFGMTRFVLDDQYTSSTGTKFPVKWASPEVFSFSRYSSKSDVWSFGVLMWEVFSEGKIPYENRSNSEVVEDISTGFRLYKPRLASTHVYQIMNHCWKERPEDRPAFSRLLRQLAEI
Format: biochemical
`Brc1cnc2[nH]c(-c3ccc(OCCN4CCN(c5ccccn5)CC4)cc3)nc2c1` [Example 67, 6-Bromo-2-{4-[2-(4-pyridin-2-ylpiperazin-1-yl)ethoxy]phenyl}-3H-imidazo[4,5-b]pyridine bis(trifluoroacetate)] gave an IC50 of under 25 µM.
`CCN1CCCC(NCC(O)COc2ccc(-c3nc4cc(Br)cnc4[nH]3)cc2)C1` (centres unmarked) [Example 153, 1-[4-(6-Bromo-3H-imidazo[4,5-b]pyridin-2-yl)phenoxy]-3-[(1-ethylpiperidin-3-yl)amino]propan-2-ol bis(trifluoroacetate)] gave an IC50 of under 25 µM.
`N#Cc1ccccc1N1CCN(CC(O)COc2ccc(-c3nc4cc(Br)cnc4[nH]3)cc2)CC1` (centres unmarked) [Example 163] was tested, and the IC50 was under 25 µM.
For `OCCNc1c(Cl)cnc2nc(-c3ccc(OCCN4CCOCC4)cc3)[nH]c12` [Example 225], the IC50 was under 25 µM.
`CN(CC(O)COc1ccc(-c2nc3cc(Br)cnc3[nH]2)cc1)C1CCC(C#N)CC1` (centres unmarked) [Example 169, 4-[{3-[4-(6-Bromo-3H-imidazo[4,5-b]pyridin-2-yl)phenoxy]-2-hydroxypropyl}(methyl)amino]cyclohexanecarbonitrile bis(trifluoroacetate)] gave an IC50 of under 25 µM.
`COCCN(CCOC)CCOc1ccc(-c2nc3cc(Br)cnc3[nH]2)cc1` [Example 64, N-{2-[4-(6-Bromo-3H-imidazo[4,5-b]pyridin-2-yl)phenoxy]ethyl}-N,N-bis(2-methoxyethyl)amine bis(trifluoroacetate)] was tested, and the IC50 was under 25 µM.
`O[C@H]1CCCC[C@H]1NCCOc1ccc(-c2nc3cc(Br)cnc3[nH]2)cc1` [Example 119, (1S,2R)-2-({2-[4-(6-Bromo-3H-imidazo[4,5-b]pyridin-2-yl)phenoxy]ethyl}amino)cyclohexanol bis(trifluoroacetate)] was tested, and the IC50 was under 25 µM.
`Clc1cnc2nc(-c3ccc(OCCN4CCOCC4)cc3)[nH]c2c1OCCN1CCCC1` [Example 234, 6-Chloro-2-{4-[2-(4-morpholinyl)ethoxy]phenyl}-7-[2-(1-pyrrolidinyl)ethoxy]-1H-imidazo[4,5-b]pyridine] gave an IC50 of under 25 µM.
For `Clc1cnc2[nH]c(-c3ccc(OCCN4CCOCC4)cc3)nc2c1Cl` [Example 206, 6,7-Dichloro-2-[4-(2-morpholin-4-ylethoxy)phenyl]-3H-imidazo[4,5-b]pyridine], the IC50 was under 25 µM.
Work on `Clc1cnc2nc(-c3ccc(OCCN4CCOCC4)cc3)[nH]c2c1SCc1ccccc1` [Example 228, 7-(Benzylthio)-6-chloro-2-{4-[2-(4-morpholinyl)ethoxy]phenyl}-1H-imidazo[4,5-b]pyridine] yielded an IC50 of under 25 µM.
In the case of `CC(=O)N1CCN(CC(O)COc2ccc(-c3nc4cc(Br)cnc4[nH]3)cc2)CC1` (centres unmarked) [Example 128, 1-(4-Acetylpiperazin-1-yl)-3-[4-(6-bromo-3H-imidazo[4,5-b]pyridin-2-yl)phenoxy]propan-2-ol bis(trifluoroacetate)], the IC50 is reported as under 25 µM.
`ClCCCOc1ccc(-c2nc3cc(Br)cnc3[nH]2)cc1` [Example 44, 6-Bromo-2-[4-(3-chloropropoxy)phenyl]-3H-imidazo[4,5-b]pyridine] showed an IC50 of under 25 µM.
`CCN(CC)c1ncc(-c2nc3cc(Br)cnc3[nH]2)s1` [Example 274, 5-(6-Bromo-3H-imidazo[4,5-b]pyridin-2-yl)-N,N-diethyl-1,3-thiazol-2-amine] showed an IC50 of under 25 µM.
In the case of `Brc1cnc2[nH]c(-c3ccc(NCc4cc[nH]n4)cc3)nc2c1` [Example 185, N-[4-(6-Bromo-3H-imidazo[4,5-b]pyridin-2-yl)phenyl]-N-(1H-pyrazol-3-ylmethyl)amine bis(trifluoroacetate)], the IC50 is reported as under 25 µM.
For `OCC1CCN(CCOc2ccc(-c3nc4cc(Br)cnc4[nH]3)cc2)CC1` [Example 100], the IC50 was under 25 µM.
`Brc1cnc2[nH]c(-c3ccc(OCCNCCN4CCOCC4)cc3)nc2c1` [Example 86, N-{2-[4-(6-Bromo-3H-imidazo[4,5-b]pyridin-2-yl)phenoxy]ethyl}-N-(2-morpholin-4-ylethyl)amine bis(trifluoroacetate)] was tested, and the IC50 was under 25 µM.
With `CC(O)CNCC(O)COc1ccc(-c2nc3cc(Br)cnc3[nH]2)cc1` (centres unmarked) [Example 147] the IC50 was under 25 µM.
With `Fc1ccccc1Nc1c(Cl)cnc2[nH]c(-c3ccc(OCCN4CCOCC4)cc3)nc12` [Example 221, 6-Chloro-N-(2-fluorophenyl)-2-[4-(2-morpholin-4-ylethoxy)phenyl]-3H-imidazo[4,5-b]pyridin-7-amine] the IC50 was under 25 µM.
With `Clc1ccccc1CNc1ccc(-c2nc3cc(Br)cnc3[nH]2)cc1` [Example 183, N-[4-(6-Bromo-3H-imidazo[4,5-b]pyridin-2-yl)phenyl]-N-(2-chlorobenzyl)amine bis(trifluoroacetate)] the IC50 was under 25 µM.
`COc1ccccc1N1CCN(CCOc2ccc(-c3nc4cc(Br)cnc4[nH]3)cc2)CC1` [Example 113, 6-Bromo-2-(4-{2-[4-(2-methoxyphenyl)piperazin-1-yl]ethoxy}phenyl)-3H-imidazo[4,5-b]pyridine bis(trifluoroacetate)] showed an IC50 of under 25 µM.
Work on `Brc1cnc2[nH]c(-c3ccc(NCc4ccccc4)cc3)nc2c1` [Example 176, N-Benzyl-N-[4-(6-bromo-3H-imidazo[4,5-b]pyridin-2-yl)phenyl]amine] yielded an IC50 of under 25 µM.
`Brc1cnc2[nH]c(-c3ccc(OCCN4CCOCC4)cc3)nc2c1` [Example 50, 6-Bromo-2-[4-(2-morpholin-4-ylethoxy)phenyl]-3H-imidazo[4,5-b]pyridine] showed an IC50 of under 25 µM.
In the case of `Clc1ccc(CCNCCOc2ccc(-c3nc4cc(Br)cnc4[nH]3)cc2)cc1` [Example 89, N-{2-[4-(6-Bromo-3H-imidazo[4,5-b]pyridin-2-yl)phenoxy]ethyl}-N-[2-(4-chlorophenyl)ethyl]amine bis(trifluoroacetate)], the IC50 is reported as under 25 µM.
For `OC1(c2ccccc2)CCN(CCOc2ccc(-c3nc4cc(Br)cnc4[nH]3)cc2)CC1` [Example 94, 1-{2-[4-(6-Bromo-3H-imidazo[4,5-b]pyridin-2-yl)phenoxy]ethyl}-4-phenylpiperidin-4-ol bis(trifluoroacetate)], the IC50 was under 25 µM.
With `Cc1cccc2c(-c3nc4cc(Br)cnc4[nH]3)c[nH]c12` [Example 8, 6-Bromo-2-(7-methyl-1H-indol-3-yl)-3H-imidazo[4,5-b]pyridine] the IC50 was under 25 µM.
Molecule `Brc1cnc2[nH]c(-c3ccc(CN4CCOCC4)cc3)nc2c1` [Example 39, 6-Bromo-2-[4-(morpholin-4-ylmethyl)phenyl]-3H-imidazo[4,5-b]pyridine bis(trifluoroacetate)] has an IC50 of under 25 µM.
Molecule `Brc1cnc2[nH]c(-c3ccc[nH]3)nc2c1` [Example 10, 6-Bromo-2-(1H-pyrrol-2-yl)-3H-imidazo[4,5-b]pyridine] has an IC50 of under 25 µM.
With `CCc1ncc(CNc2ccc(-c3nc4cc(Br)cnc4[nH]3)cc2)[nH]1` [Example 201, N-[4-(6-Bromo-3H-imidazo[4,5-b]pyridin-2-yl)phenyl]-N-[(2-ethyl-1H-imidazol-5-yl)methyl]amine bis(trifluoroacetate)] the IC50 was under 25 µM.
Molecule `N#Cc1ccc(N2CCN(CC(O)COc3ccc(-c4nc5cc(Br)cnc5[nH]4)cc3)CC2)nc1` (centres unmarked) [Example 164, 6-(4-{3-[4-(6-Bromo-3H-imidazo[4,5-b]pyridin-2-yl)phenoxy]-2-hydroxypropyl}piperazin-1-yl)nicotinonitrile bis(trifluoroacetate)] has an IC50 of under 25 µM.
`CN(CCOc1ccc(-c2nc3cc(Br)cnc3[nH]2)cc1)C1CCC(C#N)CC1` (centres unmarked) [Example 90, 4-[{2-[4-(6-Bromo-3H-imidazo[4,5-b]pyridin-2-yl)phenoxy]ethyl}(methyl)amino]cyclohexanecarbonitrile bis(trifluoroacetate)] showed an IC50 of under 25 µM.
Molecule `CCN(CCOc1ccc(-c2nc3cc(Br)cnc3[nH]2)cc1)CCN(C)C` [Example 61, N-{2-[4-(6-Bromo-3H-imidazo[4,5-b]pyridin-2-yl)phenoxy]ethyl}-N-ethyl-N′,N′-dimethylethane-1,2-diamine bis(trifluoroacetate)] has an IC50 of under 25 µM.
For `OCc1ccc(CNc2ccc(-c3nc4cc(Br)cnc4[nH]3)cc2)o1` [Example 187, [5-({[4-(6-Bromo-3H-imidazo[4,5-b]pyridin-2-yl)phenyl]amino}methyl)-2-furyl]methanol bis(trifluoroacetate)], the IC50 was under 25 µM.
`Brc1cnc2[nH]c(-c3ccc(NCc4ccoc4)cc3)nc2c1` [Example 192, N-[4-(6-Bromo-3H-imidazo[4,5-b]pyridin-2-yl)phenyl]-N-(3-furylmethyl)amine bis(trifluoroacetate)] showed an IC50 of under 25 µM.
`Clc1cnc2[nH]c(-c3ccc(OCCN4CCOCC4)cc3)nc2c1N1CCCC1` [Example 236, 6-Chloro-2-[4-(2-morpholin-4-ylethoxy)phenyl]-7-pyrrolidin-1-yl-3H-imidazo[4,5-b]pyridine] gave an IC50 of under 25 µM.
Molecule `O=C1NCCN1CCNCC(O)COc1ccc(-c2nc3cc(Br)cnc3[nH]2)cc1` (centres unmarked) [Example 139, 1-[2-(3-[4-(6-Bromo-3H-imidazo[4,5-b]pyridin-2-yl)phenoxy]-2-hydroxypropylamino)ethyl]imidazolidin-2-one bis(trifluoroacetate)] has an IC50 of under 25 µM.
`OC1CCCN(CCOc2ccc(-c3nc4cc(Br)cnc4[nH]3)cc2)C1` (centres unmarked) [Example 91, 1-{2-[4-(6-Bromo-3H-imidazo[4,5-b]pyridin-2-yl)phenoxy]ethyl}piperidin-3-ol bis(trifluoroacetate)] gave an IC50 of under 25 µM.
For `OC(CNCc1cccc(Cl)c1)COc1ccc(-c2nc3cc(Br)cnc3[nH]2)cc1` (centres unmarked) [Example 143, 1-[4-(6-Bromo-3H-imidazo[4,5-b]pyridin-2-yl)phenoxy]-3-[(3-chlorobenzyl)amino]propan-2-ol bis(trifluoroacetate)], the IC50 was under 25 µM.
`OCCN(Cc1ccccc1)c1c(Cl)cnc2nc(-c3ccc(OCCN4CCOCC4)cc3)[nH]c12` [Example 224, 2-[Benzyl(6-chloro-2-{4-[2-(4-morpholinyl)ethoxy]phenyl)-1H-imidazo[4,5-b]pyridin-7-yl)amino]ethanol] gave an IC50 of under 25 µM.
